This is one part of the list.

Sequences of proteins named here, by UniProt entry; tags and fusion partners are left off. A change or cut given only in a name is not applied to a line headed by its entry.
UniProt Q9NX76: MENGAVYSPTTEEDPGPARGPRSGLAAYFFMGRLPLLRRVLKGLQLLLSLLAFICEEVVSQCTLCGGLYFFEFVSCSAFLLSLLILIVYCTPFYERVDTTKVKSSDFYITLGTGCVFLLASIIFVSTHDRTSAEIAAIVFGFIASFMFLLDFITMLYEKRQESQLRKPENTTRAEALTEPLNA
UniProt Q9BT09: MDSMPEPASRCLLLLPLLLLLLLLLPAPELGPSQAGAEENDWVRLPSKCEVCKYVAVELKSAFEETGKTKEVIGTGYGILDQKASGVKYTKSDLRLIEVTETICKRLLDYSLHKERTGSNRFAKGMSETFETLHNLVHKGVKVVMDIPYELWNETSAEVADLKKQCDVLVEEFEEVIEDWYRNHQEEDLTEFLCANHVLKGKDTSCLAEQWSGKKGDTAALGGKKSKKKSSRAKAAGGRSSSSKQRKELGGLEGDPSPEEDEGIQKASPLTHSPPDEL
UniProt Q99828: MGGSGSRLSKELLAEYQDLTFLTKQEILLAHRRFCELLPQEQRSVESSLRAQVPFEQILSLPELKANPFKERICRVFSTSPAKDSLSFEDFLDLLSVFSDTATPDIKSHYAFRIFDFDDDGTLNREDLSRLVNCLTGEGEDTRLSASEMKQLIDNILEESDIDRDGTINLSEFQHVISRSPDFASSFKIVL
UniProt Q9H6Q4: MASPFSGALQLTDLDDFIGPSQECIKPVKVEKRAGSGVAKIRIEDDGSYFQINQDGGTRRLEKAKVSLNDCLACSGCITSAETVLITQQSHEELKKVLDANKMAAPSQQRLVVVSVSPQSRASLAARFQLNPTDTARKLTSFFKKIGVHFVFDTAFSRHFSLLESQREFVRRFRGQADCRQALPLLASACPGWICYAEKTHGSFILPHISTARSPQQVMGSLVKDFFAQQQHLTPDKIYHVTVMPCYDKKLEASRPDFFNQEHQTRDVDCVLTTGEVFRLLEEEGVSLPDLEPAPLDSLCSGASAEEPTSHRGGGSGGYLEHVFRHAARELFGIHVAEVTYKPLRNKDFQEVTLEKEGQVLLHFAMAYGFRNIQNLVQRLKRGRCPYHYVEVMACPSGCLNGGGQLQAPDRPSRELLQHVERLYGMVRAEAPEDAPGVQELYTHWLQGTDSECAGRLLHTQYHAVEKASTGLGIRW
UniProt Q9GZY4: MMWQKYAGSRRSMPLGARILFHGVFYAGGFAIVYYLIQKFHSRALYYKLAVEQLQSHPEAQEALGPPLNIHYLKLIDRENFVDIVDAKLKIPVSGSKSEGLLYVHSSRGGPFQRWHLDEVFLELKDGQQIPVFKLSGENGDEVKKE
UniProt Q9H9A5, whole entry, looked up: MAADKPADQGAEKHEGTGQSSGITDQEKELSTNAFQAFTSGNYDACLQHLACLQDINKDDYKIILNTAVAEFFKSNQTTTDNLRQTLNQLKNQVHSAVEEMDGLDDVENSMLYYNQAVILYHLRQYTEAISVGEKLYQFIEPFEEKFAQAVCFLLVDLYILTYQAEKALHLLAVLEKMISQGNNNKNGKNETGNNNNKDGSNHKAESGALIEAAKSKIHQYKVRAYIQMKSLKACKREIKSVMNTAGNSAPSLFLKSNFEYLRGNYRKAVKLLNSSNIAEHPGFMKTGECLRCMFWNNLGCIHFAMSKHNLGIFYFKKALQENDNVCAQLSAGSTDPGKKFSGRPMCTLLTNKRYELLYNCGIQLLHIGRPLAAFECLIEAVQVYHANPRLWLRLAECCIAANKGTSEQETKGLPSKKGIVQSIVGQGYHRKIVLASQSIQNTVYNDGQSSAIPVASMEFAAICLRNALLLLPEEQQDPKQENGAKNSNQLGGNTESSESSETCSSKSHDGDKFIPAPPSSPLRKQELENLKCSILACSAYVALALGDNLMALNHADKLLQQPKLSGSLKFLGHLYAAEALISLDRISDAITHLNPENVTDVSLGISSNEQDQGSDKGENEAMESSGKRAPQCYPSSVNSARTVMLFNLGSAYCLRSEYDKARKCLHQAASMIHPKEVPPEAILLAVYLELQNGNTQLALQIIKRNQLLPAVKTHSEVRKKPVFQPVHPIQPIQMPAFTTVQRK
UniProt Q9C0A0: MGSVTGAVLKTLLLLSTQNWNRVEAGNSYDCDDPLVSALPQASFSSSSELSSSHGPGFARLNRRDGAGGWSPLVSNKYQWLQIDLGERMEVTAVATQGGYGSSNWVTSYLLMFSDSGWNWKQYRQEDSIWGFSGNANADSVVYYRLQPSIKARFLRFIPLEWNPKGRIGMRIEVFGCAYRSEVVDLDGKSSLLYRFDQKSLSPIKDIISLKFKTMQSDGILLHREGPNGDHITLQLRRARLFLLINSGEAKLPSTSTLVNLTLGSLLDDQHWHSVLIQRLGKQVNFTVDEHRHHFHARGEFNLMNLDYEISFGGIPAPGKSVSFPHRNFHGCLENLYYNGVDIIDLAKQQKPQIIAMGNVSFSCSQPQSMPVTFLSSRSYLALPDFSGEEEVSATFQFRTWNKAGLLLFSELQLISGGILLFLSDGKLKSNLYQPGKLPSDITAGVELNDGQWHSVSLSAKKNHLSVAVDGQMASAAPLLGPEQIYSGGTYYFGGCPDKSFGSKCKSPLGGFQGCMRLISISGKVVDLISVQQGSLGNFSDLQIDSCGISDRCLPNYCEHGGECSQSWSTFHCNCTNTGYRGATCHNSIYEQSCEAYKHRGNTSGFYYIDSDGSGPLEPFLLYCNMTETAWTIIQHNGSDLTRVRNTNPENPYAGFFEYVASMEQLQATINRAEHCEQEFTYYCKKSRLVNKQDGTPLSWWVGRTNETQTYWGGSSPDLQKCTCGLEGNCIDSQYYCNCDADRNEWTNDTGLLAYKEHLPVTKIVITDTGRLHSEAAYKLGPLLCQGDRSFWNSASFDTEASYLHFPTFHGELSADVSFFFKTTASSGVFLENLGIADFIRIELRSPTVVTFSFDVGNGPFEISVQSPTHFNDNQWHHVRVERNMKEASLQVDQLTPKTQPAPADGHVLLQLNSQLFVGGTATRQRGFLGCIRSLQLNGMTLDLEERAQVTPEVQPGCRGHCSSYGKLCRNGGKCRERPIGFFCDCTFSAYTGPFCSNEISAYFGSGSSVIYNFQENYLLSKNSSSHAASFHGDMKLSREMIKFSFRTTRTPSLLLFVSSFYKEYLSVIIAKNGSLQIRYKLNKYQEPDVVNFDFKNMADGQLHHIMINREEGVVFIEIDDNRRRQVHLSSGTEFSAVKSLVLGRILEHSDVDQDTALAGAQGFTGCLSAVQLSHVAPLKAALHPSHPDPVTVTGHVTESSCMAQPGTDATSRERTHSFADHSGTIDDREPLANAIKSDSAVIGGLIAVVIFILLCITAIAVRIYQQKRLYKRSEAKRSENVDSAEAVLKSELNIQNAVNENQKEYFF
UniProt Q7Z7K0: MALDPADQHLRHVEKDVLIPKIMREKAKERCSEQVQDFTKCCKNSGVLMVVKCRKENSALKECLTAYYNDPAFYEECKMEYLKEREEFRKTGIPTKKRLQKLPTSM
UniProt Q8NFW8: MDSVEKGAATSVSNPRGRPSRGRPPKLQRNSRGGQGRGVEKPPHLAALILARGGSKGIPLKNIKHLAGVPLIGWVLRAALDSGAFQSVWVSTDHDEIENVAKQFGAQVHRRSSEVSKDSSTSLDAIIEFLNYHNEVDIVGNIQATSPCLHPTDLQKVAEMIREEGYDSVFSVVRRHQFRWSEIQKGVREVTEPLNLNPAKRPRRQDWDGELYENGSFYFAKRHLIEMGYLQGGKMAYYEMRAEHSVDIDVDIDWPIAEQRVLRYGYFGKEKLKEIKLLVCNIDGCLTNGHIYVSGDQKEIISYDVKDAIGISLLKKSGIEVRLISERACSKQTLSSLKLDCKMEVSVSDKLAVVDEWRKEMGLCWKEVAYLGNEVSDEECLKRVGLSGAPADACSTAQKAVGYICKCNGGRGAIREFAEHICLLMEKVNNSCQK
UniProt Q9UHD1: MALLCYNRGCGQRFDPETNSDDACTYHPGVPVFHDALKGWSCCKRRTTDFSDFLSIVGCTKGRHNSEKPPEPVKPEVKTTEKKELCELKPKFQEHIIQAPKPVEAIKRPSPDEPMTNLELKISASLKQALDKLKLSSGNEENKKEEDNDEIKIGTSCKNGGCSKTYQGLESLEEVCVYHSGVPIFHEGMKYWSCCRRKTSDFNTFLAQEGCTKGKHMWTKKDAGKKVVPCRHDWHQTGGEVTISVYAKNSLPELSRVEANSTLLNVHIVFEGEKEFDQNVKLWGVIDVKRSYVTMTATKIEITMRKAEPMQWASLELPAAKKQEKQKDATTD
UniProt P06732: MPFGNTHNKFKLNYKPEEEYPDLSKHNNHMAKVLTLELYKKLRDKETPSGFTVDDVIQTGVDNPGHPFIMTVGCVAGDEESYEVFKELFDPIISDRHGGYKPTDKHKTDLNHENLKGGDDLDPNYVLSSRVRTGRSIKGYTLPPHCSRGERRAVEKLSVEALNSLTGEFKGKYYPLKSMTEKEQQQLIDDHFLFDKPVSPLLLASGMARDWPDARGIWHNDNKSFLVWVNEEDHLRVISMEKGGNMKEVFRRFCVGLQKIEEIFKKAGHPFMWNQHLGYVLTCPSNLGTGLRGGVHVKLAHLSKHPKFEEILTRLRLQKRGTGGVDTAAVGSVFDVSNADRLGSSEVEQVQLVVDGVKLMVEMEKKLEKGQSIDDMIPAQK
UniProt Q8NE01: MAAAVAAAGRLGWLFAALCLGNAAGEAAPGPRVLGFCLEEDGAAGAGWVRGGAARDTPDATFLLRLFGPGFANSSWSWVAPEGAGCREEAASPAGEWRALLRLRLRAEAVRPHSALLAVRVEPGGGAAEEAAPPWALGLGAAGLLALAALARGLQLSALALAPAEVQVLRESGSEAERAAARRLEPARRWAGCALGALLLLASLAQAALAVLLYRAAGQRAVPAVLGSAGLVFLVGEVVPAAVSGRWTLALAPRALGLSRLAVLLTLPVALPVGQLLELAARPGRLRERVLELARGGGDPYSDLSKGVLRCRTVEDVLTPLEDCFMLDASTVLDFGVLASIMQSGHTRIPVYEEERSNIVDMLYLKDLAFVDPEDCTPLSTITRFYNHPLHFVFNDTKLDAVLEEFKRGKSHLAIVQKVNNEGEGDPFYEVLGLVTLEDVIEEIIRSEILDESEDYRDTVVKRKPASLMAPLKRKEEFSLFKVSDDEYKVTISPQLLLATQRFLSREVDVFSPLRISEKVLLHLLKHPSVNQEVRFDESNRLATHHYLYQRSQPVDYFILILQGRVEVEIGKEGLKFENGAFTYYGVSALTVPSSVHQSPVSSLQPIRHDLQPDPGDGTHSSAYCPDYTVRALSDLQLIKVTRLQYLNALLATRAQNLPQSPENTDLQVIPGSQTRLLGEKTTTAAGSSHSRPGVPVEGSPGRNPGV
UniProt Q6P4Q7: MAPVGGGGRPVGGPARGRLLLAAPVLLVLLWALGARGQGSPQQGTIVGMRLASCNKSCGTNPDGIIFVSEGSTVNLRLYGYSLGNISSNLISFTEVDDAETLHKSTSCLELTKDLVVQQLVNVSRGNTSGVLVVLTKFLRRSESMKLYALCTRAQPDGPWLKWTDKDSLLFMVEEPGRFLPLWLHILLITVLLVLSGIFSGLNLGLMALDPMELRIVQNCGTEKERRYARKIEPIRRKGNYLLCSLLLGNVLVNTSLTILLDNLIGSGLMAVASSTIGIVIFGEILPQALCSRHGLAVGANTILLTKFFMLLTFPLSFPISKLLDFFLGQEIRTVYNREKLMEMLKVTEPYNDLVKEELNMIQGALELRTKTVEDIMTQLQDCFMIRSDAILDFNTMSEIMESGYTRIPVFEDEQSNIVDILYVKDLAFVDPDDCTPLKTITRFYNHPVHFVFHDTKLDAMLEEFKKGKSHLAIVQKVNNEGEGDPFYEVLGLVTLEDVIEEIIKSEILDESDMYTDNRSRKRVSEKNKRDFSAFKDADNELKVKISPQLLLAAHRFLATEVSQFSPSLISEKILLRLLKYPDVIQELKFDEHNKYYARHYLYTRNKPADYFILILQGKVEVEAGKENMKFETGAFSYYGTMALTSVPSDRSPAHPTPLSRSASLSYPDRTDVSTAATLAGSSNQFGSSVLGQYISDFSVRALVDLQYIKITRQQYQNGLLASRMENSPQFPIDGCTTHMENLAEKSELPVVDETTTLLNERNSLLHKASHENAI
UniProt Q8NCH0: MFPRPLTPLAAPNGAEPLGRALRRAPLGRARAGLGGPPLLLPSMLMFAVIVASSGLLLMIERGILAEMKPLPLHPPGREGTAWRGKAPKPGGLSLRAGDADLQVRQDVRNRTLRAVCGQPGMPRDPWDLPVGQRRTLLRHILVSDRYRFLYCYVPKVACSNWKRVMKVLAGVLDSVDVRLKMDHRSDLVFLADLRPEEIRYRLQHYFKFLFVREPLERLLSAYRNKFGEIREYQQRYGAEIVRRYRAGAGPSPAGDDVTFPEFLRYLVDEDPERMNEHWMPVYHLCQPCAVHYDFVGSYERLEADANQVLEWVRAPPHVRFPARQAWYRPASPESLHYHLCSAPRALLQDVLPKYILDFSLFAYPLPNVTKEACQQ
UniProt Q8N5K1: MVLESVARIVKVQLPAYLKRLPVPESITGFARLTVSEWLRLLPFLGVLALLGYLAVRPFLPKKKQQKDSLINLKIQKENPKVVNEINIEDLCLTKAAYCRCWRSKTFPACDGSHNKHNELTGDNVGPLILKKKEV

Compound in the test: CC1=C(C(CC(=O)N1)C2=CC=C(C=C2)C(F)(F)F)C(=O)NC3=C(C=C4C(=C3)C=NN4)F
Nature of the test: log2 fold change, soluble protein after heating vs DMSO (PISA); higher = thermal stabilisation; K562 cells, 10 uM, 30 min; active = over 0.2 and 3.5 SD of the protein, either way, in both replicates (recomputed). Summed up:
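K562 cells at 2×10^6 cells/mL were treated with 10 μM compound for 30 min. Aliquots were heated for 3 min across 48°C-58°C, pooled, and extracted in PBS with 0.5% NP-40 at 4°C; soluble protein was the supernatant after 21,000xg for 90 min. Soluble protein was quantified by TMTpro 16plex LC-MS/MS with channel sums equalised, and reported as log2 fold change in thermal stability against DMSO controls, with values from duplicates.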
CMC2 (UniProt Q9NRP2): the log2 fold change is inactive: 0.013.

Take CMTM6 (UniProt Q9NX76): the log2 fold change was inactive: 0.001.

CNPY3 (UniProt Q9BT09): the log2 fold change is inactive: 0.012.

With CIB1 isoform 2 (UniProt Q99828), the log2 fold change was inactive: -0.052.

Take CNST (UniProt Q6PJW8): the log2 fold change is inactive: 0.022.

For CIAO3 (UniProt Q9H6Q4), the log2 fold change is inactive: -0.01.

For the target CNOT11 (UniProt Q9UKZ1), the log2 fold change is inactive: -0.01.

Consider COA1 (UniProt Q9GZY4), for which the log2 fold change is inactive: -0.028.

Consider CNPY2 (UniProt Q9Y2B0), for which the log2 fold change was inactive: 0.031.

As for CISD1 (UniProt Q9NZ45), the log2 fold change was inactive: -0.008.

As to CNOT6L (UniProt Q96LI5), the log2 fold change was inactive: 0.08.

CNOT10 isoform 6 (UniProt Q9H9A5): the log2 fold change is inactive: 0.038.

Turning to CNOT3 (UniProt O75175), the log2 fold change was inactive: -0.041.

With COA7 (UniProt Q96BR5), the log2 fold change was inactive: 0.053.

On to CNTNAP4 (UniProt Q9C0A0), for which the log2 fold change was inactive: -0.007.

CMC1 (UniProt Q7Z7K0): the log2 fold change was inactive: 0.046.

For the target CHMP7 (UniProt Q8WUX9), the log2 fold change is inactive: -0.008.

In the case of CISD3 (UniProt P0C7P0), the log2 fold change is inactive: 0.048.

With CHURC1 isoform 2 (UniProt Q8WUH1), the log2 fold change is inactive: 0.019.

For CNOT9 isoform 2 (UniProt Q92600), the log2 fold change is inactive: -0.041.

CKMT2 (UniProt P17540): the log2 fold change is inactive: 0.011.

For the target COL1A2 (UniProt P08123), the log2 fold change is inactive: 0.

With CMAS (UniProt Q8NFW8), the log2 fold change is inactive: 0.039.

With CNP (UniProt P09543), the log2 fold change is inactive: 0.01.

Regarding CHORDC1 (UniProt Q9UHD1), the log2 fold change is inactive: -0.059.

In the case of CKM (UniProt P06732), the log2 fold change is inactive: -0.038.

For the target CNNM3 (UniProt Q8NE01), the log2 fold change was inactive: 0.007.

Consider CNNM4 (UniProt Q6P4Q7), for which the log2 fold change is inactive: -0.067.

Regarding CHST14 (UniProt Q8NCH0), the log2 fold change was inactive: 0.066.

As for CKAP5 (UniProt Q14008), the log2 fold change is inactive: -0.013.

For the target CISD2 (UniProt Q8N5K1), the log2 fold change is inactive: 0.03.

In the case of CKMT1A (UniProt P12532), the log2 fold change is inactive: 0.005.

The record behind these values is the supplement of paper PMC10849652.
